“And” between values parts separate entries of the source, which are not always exact repeats. Identical values can stand only once. Further values from the same series stand in other lists.
Tested on: mice
Assay: 21-day chronic administration: body weight, organ weight, serum biochemistry
Conditions: 10 mg/kg

c1ccc2c(c1)oc1ccc(Nc3ccnc(NCCCN4CCOCC4)n3)cc12 [JX3212, N^4-(dibenzo[b,d]furan-2-yl)-N^2-(3-morpholinopropyl)pyrimidine-2,4-diamine]
Body weight (day 1, individual animals): 23.6 and 25.4 (2×) and 23.7 and 24.2 and 25 | Body weight (day 2, individual animals): 25.7 and 24.7 and 25.9 and 24.4 and 25.5 and 26.1 | Body weight (day 3, individual animals): 24.7 and 25.4 and 24 and 23.7 and 23.6 and 26.4 and 25 and 25.8 | Body weight (day 4, individual animals): 25.7 and 25 and 25.8 (2×) and 23.8 and 24.2 | Body weight (day 5, individual animals): 23.8 and 26 and 24.2 (3×) and 24.7 and 25.9 and 25.5 | Body weight (day 6, individual animals): 25.5 and 25.6 and 23.7 and 25.8 and 24.7 | Body weight (day 10, individual animals): 26 | Body weight (day 11, individual animals): 23.7 and 25.9 and 26.2 and 24.2 | Body weight (day 12, individual animals): 26 (2×) and 25.5 and 24.7 and 24.3 and 25.7 and 25.4 and 26.3 and 26.5 | Body weight (day 13, individual animals): 26.3 and 27 and 24.7 and 25.4 and 26.7 and 25 and 25.7 and 26.2 | Body weight (day 14, individual animals): 25.8 (2×) and 25.5 and 26.9 and 26.8 and 27.4 | Body weight (day 15, individual animals): 26.7 and 26.6 and 25.4 and 27.5 and 26 and 25 and 25.5 and 25.8 | Body weight (day 16, individual animals): 25.8 and 26.1 (2×) and 24.7 and 26.2 and 26.7 and 27.2 and 26.6 and 25.5 | Body weight (day 17, individual animals): 26.4 and 26.3 and 27.1 and 25 and 26 and 26.1 and 25.5 (2×) and 26.2 | Body weight (day 18, individual animals): 27.5 and 26.4 and 25.8 and 26.7 and 25 and 25.7 and 26 | Body weight (day 19, individual animals): 26 and 27.4 and 26.7 and 27 and 25.6 and 25 (2×) and 25.7 (2×) | Body weight (day 20, individual animals): 25 and 24.7 and 25.8 and 26 and 25.5 and 26.6 and 27.9 and 27.3 and 26.1 | Body weight (day 21, individual animals): 26.9 and 26.4 and 25.8 and 25.5 and 25 and 27.5 and 26.5 (2×)

CN(C)CCCN1c2ccccc2CCc2ccccc21 [imipramine]
Body weight (day 1, individual animals): 25.5 and 25.1 and 25.2 and 24.5 and 24.7 (2×) and 24.9 and 23.9 and 23.5 and 25.8 | Body weight (day 2, individual animals): 26.1 and 25.8 and 25.2 and 23.9 and 25.5 and 26.3 and 23.3 and 23.7 and 24.7 and 24.4 | Body weight (day 3, individual animals): 26 and 25.8 and 25.5 (2×) and 24.1 and 23.8 and 25 and 23.7 and 25.3 and 25.9 | Body weight (day 4, individual animals): 23.9 and 25.3 (2×) and 26.1 (2×) and 24.8 and 24.3 and 25.5 and 24 and 25.7 | Body weight (day 5, individual animals): 23.9 and 25.3 (2×) and 26.1 (2×) and 24.8 and 24.3 and 25.5 and 24 and 25.7 | Body weight (day 6, individual animals): 25.3 and 25.7 and 25.8 (2×) and 24.6 and 24.2 and 25.2 and 25.5 and 26 and 24.8 | Body weight (day 17, individual animals): 25.3 and 25.8 and 25.6 and 26.8 and 27.2 and 26.7 and 25.7 and 27.1 and 26.6 and 27.4 | Body weight (day 18, individual animals): 25.2 and 25.5 (2×) and 26.1 and 26.7 and 26.5 and 27.3 and 26.6 and 27.2 and 25.8 | Body weight (day 19, individual animals): 26.9 (2×) and 26.7 and 26.4 and 25.9 and 26.8 and 25.8 and 25.7 and 25.5 and 27.4 | Body weight (day 20, individual animals): 27.7 and 26.4 (2×) and 26 and 26.3 and 25.5 and 27.4 and 27.3 and 26.6 and 25.7 | Body weight (day 21, individual animals): 26.2 and 26.4 and 26.9 and 27.1 and 26.1 (3×) and 25.8 and 27.6 and 27.2

Source: paper PMC12903969, “Discovery of a Novel and Potent Kir4.1 Inhibitor as a Safe and Rapid‐Onset Antidepressant Agent in Mice” (Advanced Science, 2025)
